Assay results taken from PMC3398031.
These are yes or no findings as the source states them, for the method shown. Binding seen in cells or lysates may run through a third protein. Some binding calls cover weakened binding; strength is not graded here. Where a sequence is shown, tags or fusion partners need not be part of it.

The chains behind the UniProt entries cited, without tags or fusion partners.
UniProt P61073: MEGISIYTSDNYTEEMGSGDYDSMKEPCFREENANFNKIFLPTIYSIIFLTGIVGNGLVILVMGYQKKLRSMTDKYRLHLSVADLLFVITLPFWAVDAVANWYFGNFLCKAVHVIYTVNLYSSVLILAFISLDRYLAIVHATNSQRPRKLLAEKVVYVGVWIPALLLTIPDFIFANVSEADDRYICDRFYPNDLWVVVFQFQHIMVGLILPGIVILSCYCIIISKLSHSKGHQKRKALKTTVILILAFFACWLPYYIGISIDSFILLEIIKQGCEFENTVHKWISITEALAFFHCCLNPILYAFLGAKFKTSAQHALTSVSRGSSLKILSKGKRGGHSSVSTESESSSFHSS

Target: CXCR4 (construct of the co-immunoprecipitation in Figure 2c) (UniProt P61073)
Experiment: co-IP; HEK293 cells, 48 h after transfection, lysed in RIPA buffer; receptor precipitated (HA-tagged CCR5; the reciprocal was also done), FLAG-tagged DRiP78 detected by blot

binding: binds
B1: FLAG-tagged DRiP78 (protein, UniProt Q6Y2X3 1-702)
chain: MAQKHPGERGLYGAHHSGGASLRTLGPSVDPEIPSFSGLRDSAGTAPNGTRCLTEHSGPKHTQHPNPAHWLDPSHGPPGGPGPPRDAEDPDQSETSSEEESGVDQELSKENETGNQKDGNSFLSIPSACNCQGTPGIPEGPYSEGGNGSSSNFCHHCTSPALGEDELEEEYDDEESLKFPSDFSRVSSGKKPPSRRQRHRFPTKEDTREGGRRDPRSPGRHRLGRKRSQADKRKGLGLWGAEELCQLGQAGFWWLIELLVLVGEYVETCGHLIYACRQLKSSDLDLFRVWMGVWTGRLGGWAQVMFQFLSQGFYCGVGLFTRFLKLLGALLLLALALFLGFLQLGWRFLVGLGDRLGWRDKATWLFSWLDSPALQRCLTLLRDSRPWQRLVRIVQWGWLELPWVKQNINRQGNAPVASGRYCQPEEEVARLLTMAGVPEDELNPFHVLGVEATASDVELKKAYRQLAVMVHPDKNHHPRAEEAFKVLRAAWDIVSNAEKRKEYEMKRMAENELSRSVNEFLSKLQDDLKEAMNTMMCSRCQGKHRRFEMDREPKSARYCAECNRLHPAEEGDFWAESSMLGLKITYFALMDGKVYDITEWAGCQRVGISPDTHRVPYHISFGSRIPGTRGRQRATPDAPPADLQDFLSRIFQVPPGQMPNGNFFAAPQPAPGAAAASKPNSTVPKGEAKPKRRKKVRRPFQR
